Here are results for 1 molecule from US20180105596A1 (ELSALYS BIOTECH, published 2018).

The target in the assay is T1, human recombinant full-length Tyro3 protein (OriGene TP308260) (human) (UniProt Q06418).
T1 sequence: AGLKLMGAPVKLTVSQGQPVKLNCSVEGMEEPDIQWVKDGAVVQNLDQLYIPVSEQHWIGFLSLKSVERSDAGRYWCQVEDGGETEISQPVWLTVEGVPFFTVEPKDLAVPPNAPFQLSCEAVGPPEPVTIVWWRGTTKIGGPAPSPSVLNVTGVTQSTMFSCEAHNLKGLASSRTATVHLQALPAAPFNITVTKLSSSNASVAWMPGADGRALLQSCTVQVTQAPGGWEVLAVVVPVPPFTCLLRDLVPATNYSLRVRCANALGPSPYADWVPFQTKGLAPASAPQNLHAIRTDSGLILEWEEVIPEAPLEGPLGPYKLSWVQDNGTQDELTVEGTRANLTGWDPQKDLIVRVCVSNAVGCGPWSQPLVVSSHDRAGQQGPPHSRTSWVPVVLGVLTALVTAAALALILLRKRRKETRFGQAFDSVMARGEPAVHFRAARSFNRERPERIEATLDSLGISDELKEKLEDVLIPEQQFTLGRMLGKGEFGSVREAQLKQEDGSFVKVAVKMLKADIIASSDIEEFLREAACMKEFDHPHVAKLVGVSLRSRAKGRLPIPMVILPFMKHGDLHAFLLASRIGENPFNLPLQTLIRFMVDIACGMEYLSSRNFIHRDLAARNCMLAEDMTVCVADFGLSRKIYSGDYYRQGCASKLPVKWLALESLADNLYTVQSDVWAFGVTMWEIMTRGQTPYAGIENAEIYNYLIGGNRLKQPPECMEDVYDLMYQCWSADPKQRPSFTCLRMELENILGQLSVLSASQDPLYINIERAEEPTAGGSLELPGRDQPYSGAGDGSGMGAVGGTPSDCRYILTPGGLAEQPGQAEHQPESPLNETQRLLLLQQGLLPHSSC
Description: ELISA, full-length Tyro3 coated 2.5 µg/mL, biotinylated GAS6 2.5 µg/mL, streptavidin-HRP. A general note: In an ELISA, binding on a coated surface is turned into a signal by an enzyme label.

No constants are given. Whether binding was seen depends on the method and setting. Some entries that bind do so weakly or less than the wild type.

B1: biotinylated GAS6 (ligand, UniProt Q14393 49-678, looked up)
chain: AFQVFEEAKQGHLERECVEELCSREEAREVFENDPETDYFYPRYLDCINKYGSPYTKNSGFATCVQNLPDQCTPNPCDRKGTQACQDLMGNFFCLCKAGWGGRLCDKDVNECSQENGGCLQICHNKPGSFHCSCHSGFELSSDGRTCQDIDECADSEACGEARCKNLPGSYSCLCDEGFAYSSQEKACRDVDECLQGRCEQVCVNSPGSYTCHCDGRGGLKLSQDMDTCEDILPCVPFSVAKSVKSLYLGRMFSGTPVIRLRFKRLQPTRLVAEFDFRTFDPEGILLFAGGHQDSTWIVLALRAGRLELQLRYNGVGRVTSSGPVINHGMWQTISVEELARNLVIKVNRDAVMKIAVAGDLFQPERGLYHLNLTVGGIPFHEKDLVQPINPRLDGCMRSWNWLNGEDTTIQETVKVNTRMQCFSVTERGSFYPGSGFAFYSLDYMRTPLDVGTESTWEVEVVAHIRPAADTGVLFALWAPDLRAVPLSVALVDYHSTKKLKKQLVVLAVEHTALALMEIKVCDGQEHVVTVSLRDGEATLEVDGTRGQSEVSAAQLQERLAVLERHLRSPVLTFAGGLPDVPVTSAPVTAFYRGCMTLEVNRRLLDLDEAAYKHSDITAHSCPPVEPAAA
modifications: biotinylated
As for B1, the binding result is “binds”.
